Reference: patent publication US20170022149A1, “FUMARATE COMPOUNDS, PHARMACEUTICAL COMPOSITIONS THEREOF, AND METHODS OF USE” (priority 2015, published 2017)
Some entries share one result that the patent states for a list of compounds.

Key:
[1] = Stability of fumarate compounds in PBS buffer; format: physicochemical; settings: PBS 50 mM, pH 7.0 to 7.4, 20 to 37° C., 30 min
porcine liver esterase = experiment: Hydrolysis of fumarate compounds in vitro by porcine liver esterase; format: in vitro ADME; settings: porcine liver esterase in PBS buffer pH 7.0 to 8.0, 20 to 37° C., ca. 24 h

| Structure (SMILES) | stable in PBS buffer (HPLC) [1] [%] | converted to monoester fumarates and/or fumaric acid (porcine liver esterase) [%] |
| --- | --- | --- |
| COC(=O)/C=C/C(=O)OC[C@H](C)NC(=O)C(C)C [Compound 10, O1-Methyl O4-[(2S)-2-(2-methylpropanoylamino)propyl] (E)-but-2-enedioate] | > 90 | > 15 |
| COC(=O)/C=C/C(=O)OCCNC(=O)c1ccccc1 [Compound 4, O4-(2-Benzamidoethyl) O1-methyl (E)-but-2-enedioate] | > 90 | > 15 |
| COC(=O)/C=C/C(=O)OCCCNC(=O)CNC(=O)c1ccccc1 [Compound 25, O4-[3-[(2-Benzamidoacetyl)amino]propyl] O1-methyl (E)-but-2-enedioate] | > 90 | > 15 |
| COC(=O)/C=C/C(=O)OCCNC(C)=O [Compound 1, O4-(2-Acetamidoethyl) O1-methyl (E)-but-2-enedioate] | > 90 | > 15 |
| COC(=O)/C=C/C(=O)OCCNC(=O)C(C)C [Compound 2, O1-Methyl O4-[2-(2-methylpropanoylamino)ethyl] (E)-but-2-enedioate] | > 90 | > 15 |
| COC(=O)/C=C/C(=O)OCCNC(=O)CNC(=O)C(C)C [Compound 18, O1-Methyl O4-[2-[[2-(2-methylpropanoylamino)acetyl]amino]ethyl] (E)-but-2-enedioate] | > 90 | > 15 |
| COC(=O)/C=C/C(=O)OCCNC(=O)C(C)(C)C [Compound 3, O4-[2-(2,2-Dimethylpropanoylamino)ethyl] O1-methyl (E)-but-2-enedioate] | > 90 | > 15 |
| COC(=O)/C=C/C(=O)OC[C@H](NC(C)=O)c1ccccc1 [Compound 13, O4-[(2R)-2-Acetamido-2-phenyl-ethyl] O1-methyl (E)-but-2-enedioate] | > 90 | > 15 |
| COC(=O)/C=C/C(=O)OC[C@@H](C)NC(=O)c1ccccc1 [Compound 8, O4-[(2R)-2-Benzamidopropyl] O1-methyl (E)-but-2-enedioate] | > 90 | > 15 |
| COC(=O)/C=C/C(=O)OCCCNC(=O)c1ccccc1 [Compound 21, O4-(3-Benzamidopropyl) O1-methyl (E)-but-2-enedioate] | > 90 | > 15 |
| COC(=O)/C=C/C(=O)OC[C@@H](C)NC(=O)C(C)(C)C [Compound 7, O4-[(2R)-2-(2,2-Dimethylpropanoylamino)propyl] O1-methyl (E)-but-2-enedioate] | > 90 | > 15 |
| COC(=O)/C=C/C(=O)OC[C@@H](C)NC(C)=O [Compound 5, O4-[(2R)-2-Acetamidopropyl] O1-methyl (E)-but-2-enedioate] | > 90 | > 15 |
| COC(=O)/C=C/C(=O)OCCCNC(=O)CNC(=O)C(C)(C)C [Compound 24, O4-[3-[[2-(2,2-Dimethylpropanoylamino)acetyl]amino]propyl] O1-methyl (E)-but-2-enedioate] | > 90 | > 15 |
| CC(C)OC(=O)/C=C/C(=O)OCCNC(=O)C(C)C [Compound 26, O4-Isopropyl O1-[2-(2-methylpropanoylamino)ethyl] (E)-but-2-enedioate] | > 90 | > 15 |
| COC(=O)/C=C/C(=O)OC[C@H](C)NC(=O)C(C)(C)C [Compound 11, O4-[(2S)-2-(2,2-Dimethylpropanoylamino)propyl] O1-methyl (E)-but-2-enedioate] | > 90 | > 15 |
| COC(=O)/C=C/C(=O)OCCCNC(C)=O [Compound 19, O4-(3-Acetamidopropyl) O1-methyl (E)-but-2-enedioate] | > 90 | > 15 |
| COC(=O)/C=C/C(=O)OC[C@H](C)NC(C)=O [Compound 9, O4-[(2S)-2-Acetamidopropyl] O1-methyl (E)-but-2-enedioate] | > 90 | > 15 |
| COC(=O)/C=C/C(=O)OCCCNC(=O)C(C)C [Compound 20, O1-Methyl O4-[3-(2-methylpropanoylamino)propyl] (E)-but-2-enedioate] | > 90 | > 15 |
| COC(=O)/C=C/C(=O)OCCCNC(=O)CNC(=O)C(C)C [Compound 23, O1-Methyl O4-[3-[[2-(2-methylpropanoylamino)acetyl]amino]propyl] (E)-but-2-enedioate] | > 90 | > 15 |
| COC(=O)/C=C/C(=O)OC[C@@H](NC(C)=O)c1ccccc1 [Compound 15, O4-[(2S)-2-Acetamido-2-phenyl-ethyl] O1-methyl (E)-but-2-enedioate] | > 90 | > 15 |
| CC(C)OC(=O)/C=C/C(=O)OCCCNC(=O)C(C)C [Compound 31, O4-Isopropyl O1-[3-(2-methylpropanoylamino)propyl] (E)-but-2-enedioate] | > 90 | > 15 |
| COC(=O)/C=C/C(=O)OCCCNC(=O)CNC(C)=O [Compound 22, O4-[3-[(2-Acetamidoacetyl)amino]propyl] O1-methyl (E)-but-2-enedioate] | > 90 | > 15 |
| COC(=O)/C=C/C(=O)OC[C@@H](NC(=O)C(C)C)c1ccccc1 [Compound 16, O1-Methyl O4-[(2S)-2-(2-methylpropanoylamino)-2-phenyl-ethyl] (E)-but-2-enedioate] | > 90 | > 15 |
| COC(=O)/C=C/C(=O)OCCNC(=O)CNC(C)=O [Compound 17, O4-[2-[(2-Acetamidoacetyl)amino]ethyl] O1-methyl (E)-but-2-enedioate] | > 90 | > 15 |
| COC(=O)/C=C/C(=O)OC[C@H](NC(=O)C(C)C)c1ccccc1 [Compound 14, O1-Methyl O4-[(2R)-2-(2-methylpropanoylamino)-2-phenyl-ethyl] (E)-but-2-enedioate] | > 90 | > 15 |
| COC(=O)/C=C/C(=O)OC[C@@H](C)NC(=O)C(C)C [Compound 6, O1-Methyl O4-[(2R)-2-(2-methylpropanoylamino)propyl] (E)-but-2-enedioate] | > 90 | > 15 |
| COC(=O)/C=C/C(=O)OC[C@H](C)NC(=O)c1ccccc1 [Compound 12, O4-[(2S)-2-Benzamidopropyl] O1-methyl (E)-but-2-enedioate] | > 90 | > 15 |
